The other results are listed elsewhere or left out.
compound: COc1ccc(Cn2ccc3ccc(C(=O)NO)cc32)cc1; experiment: dose-dependent thermal stabilisation call (2D-TPP, DLPTP, 10% FDR) (binary (1 = stabilised)); higher = stabilised by the compound; settings: system: HL-60 intact cells; concentration range 0.04-10 µM

Amino acid sequences for entries named in this document (tags omitted). A change or cut given only in a name is not applied to a line headed by its entry.
UniProt P35232: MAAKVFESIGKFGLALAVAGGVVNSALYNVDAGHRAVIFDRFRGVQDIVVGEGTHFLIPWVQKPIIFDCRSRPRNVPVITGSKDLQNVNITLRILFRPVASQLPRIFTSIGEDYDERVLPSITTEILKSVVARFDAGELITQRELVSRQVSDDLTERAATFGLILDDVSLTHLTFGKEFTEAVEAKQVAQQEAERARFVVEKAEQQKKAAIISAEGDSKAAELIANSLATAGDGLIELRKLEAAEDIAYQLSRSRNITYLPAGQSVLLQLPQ
UniProt Q99623, whole entry: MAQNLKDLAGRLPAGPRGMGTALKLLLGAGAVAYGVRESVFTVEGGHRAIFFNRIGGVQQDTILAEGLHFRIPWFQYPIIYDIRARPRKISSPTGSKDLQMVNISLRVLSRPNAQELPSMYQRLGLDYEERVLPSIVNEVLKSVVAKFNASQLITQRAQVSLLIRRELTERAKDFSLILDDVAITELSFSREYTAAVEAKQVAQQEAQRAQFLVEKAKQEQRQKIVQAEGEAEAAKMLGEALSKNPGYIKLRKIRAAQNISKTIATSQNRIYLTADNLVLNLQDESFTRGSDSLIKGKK
UniProt P48739: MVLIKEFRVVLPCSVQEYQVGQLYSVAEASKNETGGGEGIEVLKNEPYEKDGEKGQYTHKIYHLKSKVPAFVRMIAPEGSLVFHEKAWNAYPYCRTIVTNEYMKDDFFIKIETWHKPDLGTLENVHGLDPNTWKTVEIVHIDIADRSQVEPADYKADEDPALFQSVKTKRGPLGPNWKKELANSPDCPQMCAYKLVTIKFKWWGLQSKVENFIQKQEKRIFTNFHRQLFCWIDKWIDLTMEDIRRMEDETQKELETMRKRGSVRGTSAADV
UniProt O00329: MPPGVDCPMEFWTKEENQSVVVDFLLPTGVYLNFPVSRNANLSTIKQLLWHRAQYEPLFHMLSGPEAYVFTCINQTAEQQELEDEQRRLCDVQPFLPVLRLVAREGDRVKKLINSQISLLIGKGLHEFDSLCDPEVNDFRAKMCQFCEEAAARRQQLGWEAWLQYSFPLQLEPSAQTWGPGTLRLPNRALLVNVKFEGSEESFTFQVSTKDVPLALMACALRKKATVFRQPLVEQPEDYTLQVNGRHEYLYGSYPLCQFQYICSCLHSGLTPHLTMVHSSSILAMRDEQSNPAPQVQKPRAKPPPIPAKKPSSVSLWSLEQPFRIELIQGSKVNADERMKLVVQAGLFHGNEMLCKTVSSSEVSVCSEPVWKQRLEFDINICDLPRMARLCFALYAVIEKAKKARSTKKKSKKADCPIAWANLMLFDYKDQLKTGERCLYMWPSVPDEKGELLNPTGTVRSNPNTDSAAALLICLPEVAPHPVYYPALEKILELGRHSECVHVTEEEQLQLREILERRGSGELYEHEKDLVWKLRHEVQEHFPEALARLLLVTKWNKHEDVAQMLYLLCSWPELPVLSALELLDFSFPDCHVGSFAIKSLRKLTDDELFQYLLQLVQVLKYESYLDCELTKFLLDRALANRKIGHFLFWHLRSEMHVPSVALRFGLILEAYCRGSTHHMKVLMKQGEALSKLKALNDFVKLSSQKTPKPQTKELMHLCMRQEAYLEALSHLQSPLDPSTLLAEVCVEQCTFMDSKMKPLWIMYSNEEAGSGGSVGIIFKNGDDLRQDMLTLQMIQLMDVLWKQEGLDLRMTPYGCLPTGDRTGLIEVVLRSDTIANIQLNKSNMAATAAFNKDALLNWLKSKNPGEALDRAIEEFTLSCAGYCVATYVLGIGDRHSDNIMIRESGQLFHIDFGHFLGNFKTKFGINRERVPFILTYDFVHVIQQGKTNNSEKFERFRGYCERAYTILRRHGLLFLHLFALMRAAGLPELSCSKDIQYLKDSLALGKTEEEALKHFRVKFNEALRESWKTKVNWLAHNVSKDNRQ
UniProt Q9GZS1, whole entry: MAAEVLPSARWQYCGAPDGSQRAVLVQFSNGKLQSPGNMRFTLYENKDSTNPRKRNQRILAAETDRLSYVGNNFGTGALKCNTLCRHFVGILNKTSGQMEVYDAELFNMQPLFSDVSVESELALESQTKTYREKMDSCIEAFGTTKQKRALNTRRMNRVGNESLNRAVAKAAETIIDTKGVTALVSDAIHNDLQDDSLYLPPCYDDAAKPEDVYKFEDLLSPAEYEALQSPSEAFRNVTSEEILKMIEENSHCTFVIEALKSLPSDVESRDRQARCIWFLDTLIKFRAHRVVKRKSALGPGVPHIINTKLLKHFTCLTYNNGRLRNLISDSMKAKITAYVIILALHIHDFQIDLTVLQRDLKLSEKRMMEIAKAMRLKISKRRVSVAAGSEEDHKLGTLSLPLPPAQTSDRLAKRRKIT
UniProt Q13136: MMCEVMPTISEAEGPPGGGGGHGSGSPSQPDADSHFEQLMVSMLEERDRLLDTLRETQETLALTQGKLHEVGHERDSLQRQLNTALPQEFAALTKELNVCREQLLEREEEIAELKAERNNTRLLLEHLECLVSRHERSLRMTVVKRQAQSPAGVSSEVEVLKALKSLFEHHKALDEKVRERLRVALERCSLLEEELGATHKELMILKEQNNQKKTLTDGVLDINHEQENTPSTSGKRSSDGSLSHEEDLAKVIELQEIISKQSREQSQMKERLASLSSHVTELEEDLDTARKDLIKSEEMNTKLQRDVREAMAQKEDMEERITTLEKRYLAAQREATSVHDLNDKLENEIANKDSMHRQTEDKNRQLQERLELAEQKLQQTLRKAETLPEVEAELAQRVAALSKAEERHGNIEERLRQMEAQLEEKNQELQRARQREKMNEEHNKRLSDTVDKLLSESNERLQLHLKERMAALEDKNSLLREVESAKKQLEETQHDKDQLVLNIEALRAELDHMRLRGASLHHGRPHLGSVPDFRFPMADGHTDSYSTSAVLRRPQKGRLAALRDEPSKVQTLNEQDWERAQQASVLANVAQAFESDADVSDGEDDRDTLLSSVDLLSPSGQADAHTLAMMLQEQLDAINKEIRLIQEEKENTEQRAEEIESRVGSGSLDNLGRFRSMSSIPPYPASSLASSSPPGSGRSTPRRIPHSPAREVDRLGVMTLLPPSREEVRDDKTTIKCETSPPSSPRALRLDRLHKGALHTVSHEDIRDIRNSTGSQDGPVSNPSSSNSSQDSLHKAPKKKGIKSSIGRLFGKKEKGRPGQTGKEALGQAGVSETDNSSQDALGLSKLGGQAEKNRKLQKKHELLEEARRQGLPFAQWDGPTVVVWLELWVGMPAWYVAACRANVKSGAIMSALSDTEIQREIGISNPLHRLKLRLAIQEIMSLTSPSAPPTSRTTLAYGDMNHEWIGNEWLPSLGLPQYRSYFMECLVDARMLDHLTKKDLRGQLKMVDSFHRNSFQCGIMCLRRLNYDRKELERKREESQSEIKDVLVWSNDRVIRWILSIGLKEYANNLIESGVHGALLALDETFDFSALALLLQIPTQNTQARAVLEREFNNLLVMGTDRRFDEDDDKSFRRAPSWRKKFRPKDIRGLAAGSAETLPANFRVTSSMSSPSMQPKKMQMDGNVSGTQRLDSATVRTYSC
UniProt P53041: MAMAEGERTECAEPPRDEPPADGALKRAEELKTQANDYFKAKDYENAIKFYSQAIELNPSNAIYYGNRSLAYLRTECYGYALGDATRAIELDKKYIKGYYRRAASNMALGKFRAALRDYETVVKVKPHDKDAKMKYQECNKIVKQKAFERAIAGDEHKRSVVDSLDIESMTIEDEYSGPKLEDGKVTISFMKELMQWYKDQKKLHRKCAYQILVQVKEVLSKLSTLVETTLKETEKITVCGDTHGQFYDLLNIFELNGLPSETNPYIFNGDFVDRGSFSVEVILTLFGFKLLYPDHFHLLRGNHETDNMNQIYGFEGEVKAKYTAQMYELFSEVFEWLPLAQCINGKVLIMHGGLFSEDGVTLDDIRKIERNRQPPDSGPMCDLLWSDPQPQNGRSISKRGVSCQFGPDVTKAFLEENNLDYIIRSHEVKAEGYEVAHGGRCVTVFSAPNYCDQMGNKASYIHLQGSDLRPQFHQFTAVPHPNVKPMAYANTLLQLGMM
UniProt Q9Y535: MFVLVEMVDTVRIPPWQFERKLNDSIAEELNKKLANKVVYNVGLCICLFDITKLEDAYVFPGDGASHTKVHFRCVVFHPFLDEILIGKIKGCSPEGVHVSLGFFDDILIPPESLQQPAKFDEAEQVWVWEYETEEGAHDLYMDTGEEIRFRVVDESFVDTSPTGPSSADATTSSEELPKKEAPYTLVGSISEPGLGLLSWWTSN
UniProt Q96BP3: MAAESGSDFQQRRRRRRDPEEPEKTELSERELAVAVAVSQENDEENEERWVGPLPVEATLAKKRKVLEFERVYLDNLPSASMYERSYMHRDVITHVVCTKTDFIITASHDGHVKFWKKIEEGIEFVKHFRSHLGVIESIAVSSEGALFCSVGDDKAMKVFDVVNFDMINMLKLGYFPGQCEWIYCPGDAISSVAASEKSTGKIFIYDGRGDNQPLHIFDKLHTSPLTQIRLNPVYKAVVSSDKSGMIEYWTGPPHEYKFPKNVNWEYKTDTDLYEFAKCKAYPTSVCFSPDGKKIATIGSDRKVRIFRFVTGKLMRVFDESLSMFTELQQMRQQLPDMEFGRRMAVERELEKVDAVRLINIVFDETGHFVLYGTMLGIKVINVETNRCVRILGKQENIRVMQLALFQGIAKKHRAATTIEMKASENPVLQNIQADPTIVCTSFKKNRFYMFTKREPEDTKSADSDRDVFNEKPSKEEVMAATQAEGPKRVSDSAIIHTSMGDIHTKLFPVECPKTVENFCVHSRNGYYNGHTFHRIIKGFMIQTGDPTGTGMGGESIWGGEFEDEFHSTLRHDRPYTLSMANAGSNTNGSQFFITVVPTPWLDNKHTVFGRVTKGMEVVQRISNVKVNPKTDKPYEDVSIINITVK
UniProt Q96QH2: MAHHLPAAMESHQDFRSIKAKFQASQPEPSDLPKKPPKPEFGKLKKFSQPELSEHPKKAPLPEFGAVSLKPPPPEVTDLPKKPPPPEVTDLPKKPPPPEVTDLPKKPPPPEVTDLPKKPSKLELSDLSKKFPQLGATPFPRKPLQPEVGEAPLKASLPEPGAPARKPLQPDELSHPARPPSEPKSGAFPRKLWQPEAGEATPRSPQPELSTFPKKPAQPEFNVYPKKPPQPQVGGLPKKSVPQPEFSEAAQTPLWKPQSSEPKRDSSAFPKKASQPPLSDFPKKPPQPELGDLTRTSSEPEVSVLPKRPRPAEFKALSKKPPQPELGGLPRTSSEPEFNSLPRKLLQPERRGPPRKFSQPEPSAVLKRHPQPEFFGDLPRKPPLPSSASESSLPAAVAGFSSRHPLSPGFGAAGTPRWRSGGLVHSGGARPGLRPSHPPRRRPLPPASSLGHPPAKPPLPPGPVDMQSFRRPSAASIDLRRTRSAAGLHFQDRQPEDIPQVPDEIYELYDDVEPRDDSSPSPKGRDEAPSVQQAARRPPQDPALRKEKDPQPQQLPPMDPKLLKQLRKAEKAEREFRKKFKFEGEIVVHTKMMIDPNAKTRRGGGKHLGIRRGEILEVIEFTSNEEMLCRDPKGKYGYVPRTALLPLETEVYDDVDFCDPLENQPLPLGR
UniProt Q9H8W4: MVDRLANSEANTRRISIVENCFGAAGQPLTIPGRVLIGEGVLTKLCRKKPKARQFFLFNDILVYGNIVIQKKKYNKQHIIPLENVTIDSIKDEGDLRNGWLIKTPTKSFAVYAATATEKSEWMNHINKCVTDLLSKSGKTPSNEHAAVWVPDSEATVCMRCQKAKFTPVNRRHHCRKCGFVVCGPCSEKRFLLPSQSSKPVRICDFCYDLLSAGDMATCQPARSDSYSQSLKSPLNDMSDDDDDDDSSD
UniProt P05423: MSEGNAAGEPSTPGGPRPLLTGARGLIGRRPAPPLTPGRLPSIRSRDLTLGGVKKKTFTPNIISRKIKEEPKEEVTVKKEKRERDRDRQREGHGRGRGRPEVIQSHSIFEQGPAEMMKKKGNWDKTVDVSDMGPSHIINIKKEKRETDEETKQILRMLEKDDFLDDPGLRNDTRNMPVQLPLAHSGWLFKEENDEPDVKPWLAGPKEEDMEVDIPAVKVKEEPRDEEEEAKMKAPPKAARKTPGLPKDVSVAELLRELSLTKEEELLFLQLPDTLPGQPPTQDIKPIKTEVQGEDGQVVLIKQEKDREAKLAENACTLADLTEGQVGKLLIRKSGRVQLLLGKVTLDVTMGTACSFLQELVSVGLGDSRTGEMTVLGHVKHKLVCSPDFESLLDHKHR
UniProt P08567: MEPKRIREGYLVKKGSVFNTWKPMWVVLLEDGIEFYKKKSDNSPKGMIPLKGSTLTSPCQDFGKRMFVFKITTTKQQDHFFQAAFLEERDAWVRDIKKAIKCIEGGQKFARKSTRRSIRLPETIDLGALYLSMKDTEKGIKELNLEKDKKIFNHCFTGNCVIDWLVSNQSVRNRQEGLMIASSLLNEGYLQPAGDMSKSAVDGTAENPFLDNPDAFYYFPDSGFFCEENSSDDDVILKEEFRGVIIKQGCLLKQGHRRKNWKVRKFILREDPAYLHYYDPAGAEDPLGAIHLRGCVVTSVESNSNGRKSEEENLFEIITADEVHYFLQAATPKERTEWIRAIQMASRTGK

Question: How did the “dose-dependent thermal stabilisation call” value turn out when PRKX (UniProt P51817) was run?
Answer: The value was inactive: 0.

Question: With PRAF2 (UniProt O60831) as the target, how does the “dose-dependent thermal stabilisation call” value read?
Answer: Its value is inactive: 0.

Question: For PPP2R2A (UniProt P63151), which “dose-dependent thermal stabilisation call” value is on record?
Answer: The value was inactive: 0.

Question: How did the “dose-dependent thermal stabilisation call” value turn out when PHB (UniProt P35232) was run?
Answer: Its value is inactive: 0.

Question: Which “dose-dependent thermal stabilisation call” value does the source give for PPP2R1A (UniProt P30153) here?
Answer: Its value is inactive: 0.

Question: With PIK3CA (UniProt P42336) as the target, how does the “dose-dependent thermal stabilisation call” value read?
Answer: Its value is inactive: 0.

Question: For PHB2 (UniProt Q99623), which “dose-dependent thermal stabilisation call” value is on record?
Answer: Its value is inactive: 0.

Question: How did the “dose-dependent thermal stabilisation call” value turn out when PMM1 (UniProt Q92871) was run?
Answer: The value was inactive: 0.

Question: For PMS2 (UniProt P54278), which “dose-dependent thermal stabilisation call” value is on record?
Answer: The value was inactive: 0.

Question: Which “dose-dependent thermal stabilisation call” value does the source give for PITPNB (UniProt P48739) here?
Answer: The value was inactive: 0.

Question: With PIGO (UniProt Q8TEQ8) as the target, how does the “dose-dependent thermal stabilisation call” value read?
Answer: Its value is inactive: 0.

Question: How did the “dose-dependent thermal stabilisation call” value turn out when PPP1R8 (UniProt Q12972) was run?
Answer: Its value is inactive: 0.

Question: With PIK3CD (UniProt O00329) as the target, how does the “dose-dependent thermal stabilisation call” value read?
Answer: The value was inactive: 0.

Question: For POLR1E (UniProt Q9GZS1), which “dose-dependent thermal stabilisation call” value is on record?
Answer: The value was inactive: 0.

Question: With PPFIA1 (UniProt Q13136) as the target, how does the “dose-dependent thermal stabilisation call” value read?
Answer: Its value is inactive: 0.

Question: Which “dose-dependent thermal stabilisation call” value does the source give for PRKDC (UniProt P78527) here?
Answer: Its value is inactive: 0.

Question: Which “dose-dependent thermal stabilisation call” value does the source give for PLCG2 (UniProt P16885) here?
Answer: The value was inactive: 0.

Question: PPP2R5C (UniProt Q13362) was tested. Which “dose-dependent thermal stabilisation call” value did it give?
Answer: Its value is inactive: 0.

Question: For PPP5C (UniProt P53041), which “dose-dependent thermal stabilisation call” value is on record?
Answer: Its value is inactive: 0.

Question: With PLXND1 (UniProt Q9Y4D7) as the target, how does the “dose-dependent thermal stabilisation call” value read?
Answer: The value was inactive: 0.

Question: For POLR3H (UniProt Q9Y535), which “dose-dependent thermal stabilisation call” value is on record?
Answer: The value was inactive: 0.

Question: PLCB2 (UniProt Q00722) was tested. Which “dose-dependent thermal stabilisation call” value did it give?
Answer: Its value is inactive: 0.

Question: PRKCA (UniProt P17252) was tested. Which “dose-dependent thermal stabilisation call” value did it give?
Answer: The value was inactive: 0.

Question: How did the “dose-dependent thermal stabilisation call” value turn out when PGM3 (UniProt O95394) was run?
Answer: Its value is inactive: 0.

Question: Which “dose-dependent thermal stabilisation call” value does the source give for PLD6 (UniProt Q8N2A8) here?
Answer: The value was inactive: 0.

Question: How did the “dose-dependent thermal stabilisation call” value turn out when PLP2 (UniProt Q04941) was run?
Answer: Its value is inactive: 0.

Question: How did the “dose-dependent thermal stabilisation call” value turn out when PPWD1 (UniProt Q96BP3) was run?
Answer: Its value is inactive: 0.

Question: Which “dose-dependent thermal stabilisation call” value does the source give for PHKG2 (UniProt P15735) here?
Answer: Its value is inactive: 0.

Question: For PRAM1 (UniProt Q96QH2), which “dose-dependent thermal stabilisation call” value is on record?
Answer: Its value is inactive: 0.

Question: With PGK1 (UniProt P00558) as the target, how does the “dose-dependent thermal stabilisation call” value read?
Answer: Its value is inactive: 0.

Question: With PLEKHF2 (UniProt Q9H8W4) as the target, how does the “dose-dependent thermal stabilisation call” value read?
Answer: Its value is inactive: 0.

Question: Which “dose-dependent thermal stabilisation call” value does the source give for PIN4 (UniProt Q9Y237) here?
Answer: The value was inactive: 0.

Question: For PHAX (UniProt Q9H814), which “dose-dependent thermal stabilisation call” value is on record?
Answer: The value was inactive: 0.

Question: POLR3D (UniProt P05423) was tested. Which “dose-dependent thermal stabilisation call” value did it give?
Answer: The value was inactive: 0.

Question: With PLEKHO2 (UniProt Q8TD55) as the target, how does the “dose-dependent thermal stabilisation call” value read?
Answer: Its value is inactive: 0.

Question: For PLEK (UniProt P08567), which “dose-dependent thermal stabilisation call” value is on record?
Answer: The value was inactive: 0.

Question: With PPP1R10 (UniProt Q96QC0) as the target, how does the “dose-dependent thermal stabilisation call” value read?
Answer: Its value is inactive: 0.

From the supplement of paper PMC7666118
